Our source for the binding values is paper PMC10638239.

By UniProt entry, the sequences of proteins in these tests, tags left out. Where a name states a change or a piece, a line headed by the entry shows the natural chain unless it says otherwise.
UniProt Q9NPG3: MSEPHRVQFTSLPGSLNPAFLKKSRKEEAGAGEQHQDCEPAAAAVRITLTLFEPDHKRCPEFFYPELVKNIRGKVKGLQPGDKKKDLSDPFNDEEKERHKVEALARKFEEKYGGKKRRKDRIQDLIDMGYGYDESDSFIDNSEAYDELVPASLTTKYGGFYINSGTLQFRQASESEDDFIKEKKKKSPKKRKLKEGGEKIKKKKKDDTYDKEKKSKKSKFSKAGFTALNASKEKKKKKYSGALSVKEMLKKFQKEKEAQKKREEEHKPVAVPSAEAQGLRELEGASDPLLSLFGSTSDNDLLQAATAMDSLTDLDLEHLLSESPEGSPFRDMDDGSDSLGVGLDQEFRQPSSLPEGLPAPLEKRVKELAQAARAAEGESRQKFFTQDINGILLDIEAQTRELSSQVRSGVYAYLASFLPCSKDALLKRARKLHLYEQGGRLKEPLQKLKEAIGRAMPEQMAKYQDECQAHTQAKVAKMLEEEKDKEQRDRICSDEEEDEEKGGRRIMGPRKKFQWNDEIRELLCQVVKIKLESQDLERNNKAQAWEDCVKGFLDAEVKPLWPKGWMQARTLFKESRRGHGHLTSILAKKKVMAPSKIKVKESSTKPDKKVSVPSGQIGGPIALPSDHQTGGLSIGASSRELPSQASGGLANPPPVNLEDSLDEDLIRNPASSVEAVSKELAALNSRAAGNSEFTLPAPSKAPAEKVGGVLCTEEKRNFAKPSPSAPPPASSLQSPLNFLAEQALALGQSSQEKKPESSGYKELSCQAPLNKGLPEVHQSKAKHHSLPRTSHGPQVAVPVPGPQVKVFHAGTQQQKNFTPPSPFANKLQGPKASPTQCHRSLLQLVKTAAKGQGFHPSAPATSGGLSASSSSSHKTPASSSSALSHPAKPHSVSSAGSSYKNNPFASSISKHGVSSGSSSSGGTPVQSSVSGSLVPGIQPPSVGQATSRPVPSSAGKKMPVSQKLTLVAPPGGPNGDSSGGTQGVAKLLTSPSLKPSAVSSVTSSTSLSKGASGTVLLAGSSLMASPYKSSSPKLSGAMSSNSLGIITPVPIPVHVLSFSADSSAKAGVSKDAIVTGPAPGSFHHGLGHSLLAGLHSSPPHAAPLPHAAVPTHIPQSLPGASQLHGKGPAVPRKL
UniProt Q9GZX7: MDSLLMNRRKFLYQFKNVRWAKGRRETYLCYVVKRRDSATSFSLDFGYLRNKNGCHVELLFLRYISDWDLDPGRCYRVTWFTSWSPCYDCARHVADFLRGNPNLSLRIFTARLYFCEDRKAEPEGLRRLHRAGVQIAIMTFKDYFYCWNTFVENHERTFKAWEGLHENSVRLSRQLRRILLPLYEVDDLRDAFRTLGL

No constants are given. Whether binding was seen depends on the method and setting. For some of these results: Binding seen in cells or lysates may run through a third protein. Some entries that bind do so weakly or less than the wild type.

For one assay, the target named is His-MBP-Flag-UBN1^1-175 (UniProt Q9NPG3). Description: pull-down; equimolar purified proteins in 200 mM NaCl, 10 mM Tris-Cl pH 8.0, 10% glycerol, 0.1% tween 20, 1 mM βME, 20 mM imidazole, 6 h at 4 °C; His-tagged bait on Ni-NTA beads; washes with 50 mM imidazole; western blot with anti-flag or anti-AID antibody; both purified. (In western blotting, separated proteins are transferred to a membrane and probed.)

In the next assay the target is His-MBP-UBN1^1-175 (UniProt Q9NPG3). The assay is described as follows: pull-down; purified His-MBP fusion incubated with 1.5 mg whole cell lysate of Raji or DT40 ψV KO in 1X PBS, 6 h at 4 °C; Ni-NTA beads; washes with 200 mM NaCl, 50 mM imidazole; western blot with anti-AID mAb or anti-UBN1 pAb; only the target purified.
For assay [1], the target named is Ubinuclein 1 (UBN1), endogenous in Raji cells (human (endogenous in Raji)) (UniProt Q9NPG3). The assay is described as follows: co-IP; whole-cell extract of Raji or DT40 ψV KO cells cross-linked with 2 mM DSP; lysis in 50 mM Tris-Cl pH 8.0, 150 mM NaCl, 1.0% NP-40 with DNaseI; anti-AID mAb or anti-UBN1 pAb, protein-A agarose; washes with 750 mM NaCl; western blot.

Assay [2] shares this target. The assay is described as follows: proximity ligation; Duolink in situ PLA on fixed, permeabilised Raji or DT40 ψV KO cells with mouse anti-AID and rabbit anti-UBN1 primary antibodies; confocal microscopy.
Assay [3] deals with His-MBP-hAID (human) (UniProt Q9GZX7). The assay is described as follows: pull-down; equimolar purified proteins in 200 mM NaCl, 10 mM Tris-Cl pH 8.0, 10% glycerol, 0.1% tween 20, 1 mM βME, 20 mM imidazole, 6 h at 4 °C; His-tagged bait on Ni-NTA beads; washes with 50 mM imidazole; western blot with anti-flag or anti-AID antibody; both purified.
The target is the same in assay [4]. Description: pull-down; purified His-MBP fusion incubated with 1.5 mg whole cell lysate of Raji or DT40 ψV KO in 1X PBS, 6 h at 4 °C; Ni-NTA beads; washes with 200 mM NaCl, 50 mM imidazole; western blot with anti-AID mAb or anti-UBN1 pAb; only the target purified.
The target of assay [5] is Activation-induced cytidine deaminase (AID), endogenous in Raji cells (human (endogenous in Raji)) (UniProt Q9GZX7). Description: co-IP; whole-cell extract of Raji or DT40 ψV KO cells cross-linked with 2 mM DSP; lysis in 50 mM Tris-Cl pH 8.0, 150 mM NaCl, 1.0% NP-40 with DNaseI; anti-AID mAb or anti-UBN1 pAb, protein-A agarose; washes with 750 mM NaCl; western blot.

As for “MBP-hAID (without His-tag) (from UniProt Q9GZX7 1-198) (enzyme)”, the binding entry with His-MBP-Flag-UBN1^1-175 is given as “binds”. “Activation-induced cytidine deaminase (AID), endogenous in Raji cells (from UniProt Q9GZX7 1-198) (enzyme)”: the binding result is recorded as “binds” in the assay with His-MBP-UBN1^1-175, “binds” in assay [1] and “binds weakly” in assay [2]. In the case of “MBP-Flag-UBN1^1-175 (without His-tag) (from UniProt Q9NPG3 1-175) (domain or fragment)”, the binding entry with His-MBP-hAID (human) [3] was “binds”. For “Ubinuclein 1 (UBN1), endogenous in Raji cells (from UniProt Q9NPG3 1-1134)”, the binding result (with His-MBP-hAID (human) [4]; in assay [5]) was “binds” throughout.
